Measurements: PMC8542044
Results are given in words; binding and its absence hold for the method and conditions named. In cells and extracts the contact can be indirect. Some results given as binding are weak or reduced against the parent protein; the word gives no strength. For some assays here: Sequences can lack the tags named with a protein.

Chains of the proteins cited; added tags and fusions are not shown.
UniProt Q13263: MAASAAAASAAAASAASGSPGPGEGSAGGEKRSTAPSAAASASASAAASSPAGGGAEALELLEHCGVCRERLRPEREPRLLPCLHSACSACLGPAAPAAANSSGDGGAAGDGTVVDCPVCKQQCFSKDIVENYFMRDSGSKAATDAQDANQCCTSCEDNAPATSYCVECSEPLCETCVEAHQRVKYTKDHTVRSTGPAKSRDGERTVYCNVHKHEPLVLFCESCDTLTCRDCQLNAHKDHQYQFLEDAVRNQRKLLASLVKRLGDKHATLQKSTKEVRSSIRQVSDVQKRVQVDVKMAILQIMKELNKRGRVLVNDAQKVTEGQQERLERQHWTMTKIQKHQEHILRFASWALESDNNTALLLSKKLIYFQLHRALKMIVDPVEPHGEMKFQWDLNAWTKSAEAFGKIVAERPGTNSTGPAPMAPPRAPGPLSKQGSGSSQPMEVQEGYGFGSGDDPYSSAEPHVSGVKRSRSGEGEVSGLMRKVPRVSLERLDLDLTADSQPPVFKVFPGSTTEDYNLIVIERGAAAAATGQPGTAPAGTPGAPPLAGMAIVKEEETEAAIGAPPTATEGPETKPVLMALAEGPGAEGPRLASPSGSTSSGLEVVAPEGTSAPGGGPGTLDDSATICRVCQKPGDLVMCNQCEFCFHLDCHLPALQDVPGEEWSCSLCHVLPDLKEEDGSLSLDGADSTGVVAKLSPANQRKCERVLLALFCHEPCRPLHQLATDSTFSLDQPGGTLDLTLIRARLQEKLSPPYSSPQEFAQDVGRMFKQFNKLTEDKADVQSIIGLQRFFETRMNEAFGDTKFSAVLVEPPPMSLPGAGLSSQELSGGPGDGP

T1: Flag-MLKL-Q356A (human) (UniProt Q8NB16)
T1 sequence: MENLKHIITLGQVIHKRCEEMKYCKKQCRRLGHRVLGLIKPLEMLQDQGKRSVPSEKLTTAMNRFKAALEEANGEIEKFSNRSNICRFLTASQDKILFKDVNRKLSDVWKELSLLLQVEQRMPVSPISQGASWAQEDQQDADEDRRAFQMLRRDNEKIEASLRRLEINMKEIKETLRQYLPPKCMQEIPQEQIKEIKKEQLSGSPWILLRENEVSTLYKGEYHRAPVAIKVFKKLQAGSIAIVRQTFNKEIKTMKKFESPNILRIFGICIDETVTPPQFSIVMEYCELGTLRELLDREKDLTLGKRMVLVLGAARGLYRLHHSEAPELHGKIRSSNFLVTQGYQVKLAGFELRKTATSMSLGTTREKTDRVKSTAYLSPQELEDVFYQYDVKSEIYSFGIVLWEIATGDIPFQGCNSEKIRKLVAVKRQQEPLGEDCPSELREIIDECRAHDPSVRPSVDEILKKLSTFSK

T2: MLKL (endogenous, HT-29 cells) (human (endogenous in HT-29)) (UniProt Q8NB16)
T2 sequence: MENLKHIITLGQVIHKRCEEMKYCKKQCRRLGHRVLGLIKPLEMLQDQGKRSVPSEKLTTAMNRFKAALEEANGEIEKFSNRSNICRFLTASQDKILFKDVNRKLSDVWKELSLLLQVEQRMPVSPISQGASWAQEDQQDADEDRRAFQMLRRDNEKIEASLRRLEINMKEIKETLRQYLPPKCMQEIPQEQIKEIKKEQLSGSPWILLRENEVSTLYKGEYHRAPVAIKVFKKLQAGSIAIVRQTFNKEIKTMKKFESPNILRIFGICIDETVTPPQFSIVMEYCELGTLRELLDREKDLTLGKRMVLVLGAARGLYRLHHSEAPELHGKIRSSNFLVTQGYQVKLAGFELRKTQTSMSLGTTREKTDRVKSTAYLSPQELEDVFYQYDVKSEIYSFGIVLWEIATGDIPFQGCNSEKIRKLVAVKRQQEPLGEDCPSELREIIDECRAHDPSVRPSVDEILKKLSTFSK


Key:
Flag-MLKL-Q356A (human) = target: T1, Flag-MLKL-Q356A (human); assay: co-IP; 293T cells with tet-inducible Flag-MLKL Q356A, after doxycycline induction, with or without NSA; lysates immunoprecipitated with anti-Flag resin, western blot
[1] = target: T2, MLKL (endogenous, HT-29 cells) (human (endogenous in HT-29)); assay: co-IP; HT-29 cells, control or treated with TSZ or TSZ + Nec-1s for 4 h; lysates immunoprecipitated with MLKL antibody, western blot; lysis buffer 50 mM Tris-HCl pH 7.2, 150 mM NaCl, 0.5% NP40
HA-TRIM28 (human) = HA-TRIM28 (human) (UniProt Q13263); assay: co-IP; 293T cells transfected with GFP-MLKL and HA-TRIM28 for 24 h; lysates immunoprecipitated with anti-HA resin, western blot

binding (Flag-MLKL-Q356A (human))	binding [1]	Molecule	further results
binds		TRIM28 (endogenous, 293T cells) (from UniProt Q13263 1-835)	
	binds	TRIM28 (endogenous, HT-29 cells) (from UniProt Q13263 1-835)	
binds		p-S473 TRIM28 (endogenous, 293T cells) (from UniProt Q13263 1-835)	
	binds	p-S473 TRIM28 (endogenous, HT-29 cells) (from UniProt Q13263 1-835)	
		GFP-MLKL (protein, UniProt Q8NB16 1-471) MENLKHIITLGQVIHKRCEEMKYCKKQCRRLGHRVLGLIKPLEMLQDQGKRSVPSEKLTTAMNRFKAALEEANGEIEKFSNRSNICRFLTASQDKILFKDVNRKLSDVWKELSLLLQVEQRMPVSPISQGASWAQEDQQDADEDRRAFQMLRRDNEKIEASLRRLEINMKEIKETLRQYLPPKCMQEIPQEQIKEIKKEQLSGSPWILLRENEVSTLYKGEYHRAPVAIKVFKKLQAGSIAIVRQTFNKEIKTMKKFESPNILRIFGICIDETVTPPQFSIVMEYCELGTLRELLDREKDLTLGKRMVLVLGAARGLYRLHHSEAPELHGKIRSSNFLVTQGYQVKLAGFELRKTQTSMSLGTTREKTDRVKSTAYLSPQELEDVFYQYDVKSEIYSFGIVLWEIATGDIPFQGCNSEKIRKLVAVKRQQEPLGEDCPSELREIIDECRAHDPSVRPSVDEILKKLSTFSK	binding (HA-TRIM28 (human)): binds
